In ChEMBL document CHEMBL4316593 (Eur J Med Chem, 2019):
This continues a long series; more values of the same kind are listed elsewhere.

Columns and labels:
Format in all cases: cell-based
Conditions in all cases: U-87MG ATCC
[1] = Inhibition of RTK/PI3K/AKT/mTOR signaling in human U87 cells assessed as down regulation of CIDECP gene expression at cytotoxic IC50 measured after 48 hrs relative to control
[2] = Inhibition of RTK/PI3K/AKT/mTOR signaling in human U87 cells assessed as down regulation of MATR3 gene expression at cytotoxic IC50 measured after 48 hrs relative to control
[3] = Inhibition of RTK/PI3K/AKT/mTOR signaling in human U87 cells assessed as down regulation of RFWD3 gene expression at cytotoxic IC50 measured after 48 hrs relative to control
[4] = Inhibition of RTK/PI3K/AKT/mTOR signaling in human U87 cells assessed as down regulation of ZNF79 gene expression at cytotoxic IC50 measured after 48 hrs relative to control
[5] = Inhibition of RTK/PI3K/AKT/mTOR signaling in human U87 cells assessed as down regulation of TAF9 gene expression at cytotoxic IC50 measured after 48 hrs relative to control
[6] = Inhibition of RTK/PI3K/AKT/mTOR signaling in human U87 cells assessed as down regulation of MCM8 gene expression at cytotoxic IC50 measured after 48 hrs relative to control
[7] = Inhibition of RTK/PI3K/AKT/mTOR signaling in human U87 cells assessed as down regulation of TTC14 gene expression at cytotoxic IC50 measured after 48 hrs relative to control
[8] = Inhibition of RTK/PI3K/AKT/mTOR signaling in human U87 cells assessed as down regulation of NDUFB6 gene expression at cytotoxic IC50 measured after 48 hrs relative to control
[9] = Inhibition of RTK/PI3K/AKT/mTOR signaling in human U87 cells assessed as down regulation of KIAA0355 gene expression at cytotoxic IC50 measured after 48 hrs relative to control
[10] = Inhibition of RTK/PI3K/AKT/mTOR signaling in human U87 cells assessed as down regulation of NUDT16 gene expression at cytotoxic IC50 measured after 48 hrs relative to control
[11] = Inhibition of RTK/PI3K/AKT/mTOR signaling in human U87 cells assessed as down regulation of NAA30 gene expression at cytotoxic IC50 measured after 48 hrs relative to control
[12] = Inhibition of RTK/PI3K/AKT/mTOR signaling in human U87 cells assessed as down regulation of FMR1 gene expression at cytotoxic IC50 measured after 48 hrs relative to control
[13] = Inhibition of RTK/PI3K/AKT/mTOR signaling in human U87 cells assessed as down regulation of POLR2J gene expression at cytotoxic IC50 measured after 48 hrs relative to control
[14] = Inhibition of RTK/PI3K/AKT/mTOR signaling in human U87 cells assessed as down regulation of C16orf72 gene expression at cytotoxic IC50 measured after 48 hrs relative to control
[15] = Inhibition of RTK/PI3K/AKT/mTOR signaling in human U87 cells assessed as down regulation of SRP14 gene expression at cytotoxic IC50 measured after 48 hrs relative to control
[16] = Inhibition of RTK/PI3K/AKT/mTOR signaling in human U87 cells assessed as up regulation of FAM83H-AS1 gene expression at cytotoxic IC50 measured after 48 hrs relative to control
[17] = Inhibition of RTK/PI3K/AKT/mTOR signaling in human U87 cells assessed as up regulation of HMGA2 gene expression at cytotoxic IC50 measured after 48 hrs relative to control
[18] = Inhibition of RTK/PI3K/AKT/mTOR signaling in human U87 cells assessed as up regulation of CNPY3 gene expression at cytotoxic IC50 measured after 48 hrs relative to control
[19] = Inhibition of RTK/PI3K/AKT/mTOR signaling in human U87 cells assessed as up regulation of solute carrier family 25 member 43 gene expression at cytotoxic IC50 measured after 48 hrs relative to control
[20] = Inhibition of RTK/PI3K/AKT/mTOR signaling in human U87 cells assessed as up regulation of CTD small phosphatase 1 gene expression at cytotoxic IC50 measured after 48 hrs relative to control
[21] = Inhibition of RTK/PI3K/AKT/mTOR signaling in human U87 cells assessed as up regulation of protein-glucosylgalactosylhydroxylysine glucosidase gene expression at cytotoxic IC50 measured after 48 hrs relative to control
[22] = Inhibition of RTK/PI3K/AKT/mTOR signaling in human U87 cells assessed as up regulation of chromobox 7 gene expression at cytotoxic IC50 measured after 48 hrs relative to control
[23] = Inhibition of RTK/PI3K/AKT/mTOR signaling in human U87 cells assessed as up regulation of chromosome 16 open reading frame 45 gene expression at cytotoxic IC50 measured after 48 hrs relative to control
[24] = Inhibition of RTK/PI3K/AKT/mTOR signaling in human U87 cells assessed as up regulation of transmembrane protein 131 gene expression at cytotoxic IC50 measured after 48 hrs relative to control
[25] = Inhibition of RTK/PI3K/AKT/mTOR signaling in human U87 cells assessed as up regulation of protein phosphatase 2 phosphatase activator gene expression at cytotoxic IC50 measured after 48 hrs relative to control
[26] = Inhibition of RTK/PI3K/AKT/mTOR signaling in human U87 cells assessed as up regulation of anaphase promoting complex subunit 16 gene expression at cytotoxic IC50 measured after 48 hrs relative to control
[27] = Inhibition of RTK/PI3K/AKT/mTOR signaling in human U87 cells assessed as up regulation of transmembrane protein 18 gene expression at cytotoxic IC50 measured after 48 hrs relative to control
[28] = Inhibition of RTK/PI3K/AKT/mTOR signaling in human U87 cells assessed as up regulation of KIAA2013 gene expression at cytotoxic IC50 measured after 48 hrs relative to control
[29] = Inhibition of RTK/PI3K/AKT/mTOR signaling in human U87 cells assessed as up regulation of EIF3E gene expression at cytotoxic IC50 measured after 48 hrs relative to control
[30] = Inhibition of RTK/PI3K/AKT/mTOR signaling in human U87 cells assessed as up regulation of NEIL2 gene expression at cytotoxic IC50 measured after 48 hrs relative to control
[31] = Inhibition of RTK/PI3K/AKT/mTOR signaling in human U87 cells assessed as up regulation of HDLBP gene expression at cytotoxic IC50 measured after 48 hrs relative to control
[32] = Inhibition of RTK/PI3K/AKT/mTOR signaling in human U87 cells assessed as up regulation of MTDH gene expression at cytotoxic IC50 measured after 48 hrs relative to control

Structure (SMILES): CC(=O)C(=NNc1ccccc1C#N)C(C)=O
- log2FC [1]: -2.04
- log2FC [2]: -2.04
- log2FC [3]: -1.54
- log2FC [4]: -1.42
- log2FC [5]: -1.38
- log2FC [6]: -1.3
- log2FC [7]: -1.13
- log2FC [8]: -0.957
- log2FC [9]: -0.945
- log2FC [10]: -0.926
- log2FC [11]: -0.868
- log2FC [12]: -0.751
- log2FC [13]: -0.747
- log2FC [14]: -0.564
- log2FC [15]: -0.486
- log2FC [16]: 1.96
- log2FC [17]: 1.64
- log2FC [18]: 1.58
- log2FC [19]: 1.42
- log2FC [20]: 1.25
- log2FC [21]: 1.21
- log2FC [22]: 1.17
- log2FC [23]: 1.16
- log2FC [24]: 0.942
- log2FC [25]: 0.775
- log2FC [26]: 0.768
- log2FC [27]: 0.721
- log2FC [28]: 0.687
- log2FC [29]: 0.643
- log2FC [30]: 0.608
- log2FC [31]: 0.435
- log2FC [32]: 0.433
